# Reference: PubChem BioAssay AID2685 (National Center for Advancing Translational Sciences (NCATS), 2010)
# This is one part of the list. These are further read-outs of the screen, such as a control signal, another cell line or another target. No call is given for them. Compounds called inactive in the main read-out are mostly missing here. Words in brackets tell the shape of the fitted curve; partial curves, single points and poor fits give uncertain potencies.
# Experiment: qHTS Assay for Lipid Storage Modulators in Drosophila S3 Cells;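 as to cell number change: cells counted by Cell Tracker Red CMTPX staining in the red channel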
# Details: BODIPY lipid droplet fluorescence, 18-24 h; for cell number change: measured here: cell count max response, cells fed with added oleic acid
# Outline: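 Laser-scanning cytometry quantifies lipid droplet accumulation (500–530 nm total intensity; droplet/cell object ratio) in oleic acid-fed (400 uM added) Drosophila S3 cells treated with a concentration series. 20 uM Triacsin C defined 100% inhibition.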
# [1] = measured here: cell number channel AC50, cells fed with added oleic acid
# [2] = measured here: lipid fluorescence (Fed channel) AC50, cells fed with added oleic acid
Compound,cell number change [%],AC50 [1],AC50 [2]
Cc1nn(-c2ncc(C(F)(F)F)cc2Cl)c(=O)n1-c1c(F)cccc1F,-22.3,"1.03 µM [falling, full curve, poor fit]",
CCc1ccc(N2CC(C(=O)NCCC3=CCCCC3)CC2=O)cc1 (stereo not given),-14.7,,"23.1 µM [falling, single point]"
COc1ccc(NC(=O)c2ccc(CN(c3cc(Cl)ccc3C)S(=O)(=O)c3ccccc3)cc2)cc1OC,54.3,"0.00461 µM [rising, full curve, poor fit]",
CCCCOc1ccc(S(=O)(=O)NNC(=O)C2Cc3c(ccc4ccccc34)O2)cc1 (stereo not given),-15.2,,"0.82 µM [falling, full curve, poor fit]"
CC(C)(C)OC(=O)CNC(=O)c1[nH]cnc1C(=O)NCCCCCNC(=O)OC(C)(C)C,0.898,,"2.31 µM [falling, partial curve]"
Cc1cc(C(=O)COC(=O)c2ccc[nH]c2=O)c(C)n1-c1ccccc1,4.75,"0.184 µM [falling, full curve, poor fit]",
COCc1cc(C)[nH]c(=O)c1C#N,0.771,,
CN(CC1CCCN(CCc2ccc(F)cc2)C1)C(=O)CCC(N)=O (stereo not given),10.6,,
Cc1ccccc1-c1nn[nH]n1,0.588,,
CCOC(=O)c1cnc(SCC(=O)Nc2ccc(NC(C)=O)c(OC)c2)nc1N,2.05,,
S=C(NCCc1ccccc1)NCC1CCCO1 (stereo not given),26.2,"0.058 µM [rising, full curve]","0.13 µM [rising, full curve, poor fit]"
Cc1c2cnn(CC(=O)NCCCN3CC(C)CC(C)C3)c(=O)c2c(C)n1Cc1ccc(Cl)cc1 (stereo not given),18.7,"3.26 µM [rising, single point]","29.1 µM [rising, single point]"
CNc1sc(C(=O)c2ccccc2F)c(N)c1-c1nc2ccccc2s1,-143,,
CCN(CC(=O)Nc1ccccc1C(F)(F)F)C(=O)CCOc1ccccc1C,11,,"29.1 µM [falling, partial curve, poor fit]"
N#CC1=C(N)N2C(=C(C#N)C1c1ccccc1)Sc1ccccc12 (stereo not given),12.3,,"0.731 µM [rising, full curve, poor fit]"
COc1cc(/C=C2\SC(N)=NC2=O)cc(Br)c1O,16.1,,"29.1 µM [falling, single point]"
O=C(OCC(=O)N1CCCc2ccccc21)c1cc(S(=O)(=O)N2CCOCC2)ccc1O,-36.7,"29.1 µM [falling, single point]","18.4 µM [falling, single point]"
CC(C)(C)C(=O)Nc1nnc(SCC(=O)Nc2nccs2)s1,-15.1,,"29.1 µM [falling, single point]"
COc1ccc([C@H]2CC(=O)C=C(c3cccc4c3Oc3ccccc3S4)C2)cc1OC,-36.5,"25.9 µM [falling, single point]","4.61 µM [falling, single point]"

# Taken from the entries so far for reference:
Compound,cell number change [%],AC50 [1],AC50 [2]
CC(C)(C)OC(=O)CNC(=O)c1[nH]cnc1C(=O)NCCCCCNC(=O)OC(C)(C)C,0.898,,"2.31 µM [falling, partial curve]"
Cc1cc(C(=O)COC(=O)c2ccc[nH]c2=O)c(C)n1-c1ccccc1,4.75,"0.184 µM [falling, full curve, poor fit]",
COCc1cc(C)[nH]c(=O)c1C#N,0.771,,
CN(CC1CCCN(CCc2ccc(F)cc2)C1)C(=O)CCC(N)=O (stereo not given),10.6,,
Cc1ccccc1-c1nn[nH]n1,0.588,,
CCOC(=O)c1cnc(SCC(=O)Nc2ccc(NC(C)=O)c(OC)c2)nc1N,2.05,,
S=C(NCCc1ccccc1)NCC1CCCO1 (stereo not given),26.2,"0.058 µM [rising, full curve]","0.13 µM [rising, full curve, poor fit]"
Cc1c2cnn(CC(=O)NCCCN3CC(C)CC(C)C3)c(=O)c2c(C)n1Cc1ccc(Cl)cc1 (stereo not given),18.7,"3.26 µM [rising, single point]","29.1 µM [rising, single point]"

# Later entries

Compound,cell number change [%],AC50 [1],AC50 [2]
O=C(NC1CC1)C1=C[C@H](c2csc3ccccc23)C[C@H](OCc2ccc(CO)cc2)O1,,,"0.326 µM [falling, partial curve, poor fit]"
CCOCC(=O)Nc1ccc2c(c1)N(S(=O)(=O)c1cccs1)CCC2,,"3.26 µM [rising, partial curve]",
O=C(Nc1ccc2nc(-c3ccccc3)[nH]c2c1)c1cccs1,18.2,,"0.517 µM [rising, partial curve, poor fit]"
COC(=O)c1cc(OC)c(OC)cc1NC(=O)c1ccc(OC)cc1,-48.1,"29.1 µM [falling, single point]",
Cc1c(OCC(=O)NCc2cccnc2)ccc2c3c(c(=O)oc12)CCCC3,-23.8,"0.291 µM [falling, full curve, poor fit]",
COc1ccccc1N(C)S(=O)(=O)c1ccc(C)c(C(=O)NCc2ccccn2)c1,-8.06,,"0.461 µM [rising, partial curve, poor fit]"
Nc1nc(SCC(=O)N2CCCc3ccccc32)n(-c2ccccc2)n1,15.6,,
O=C1CCC(C(=O)Nc2ccc(Cl)cc2)N1 (stereo not given),20.9,,"29.1 µM [rising, single point]"
CC1(C)Cc2nc3oc4c(NCc5ccccc5)ncnc4c3cc2CO1,-1.35,,"0.326 µM [falling, single point]"
O=C(CSCc1c(Cl)cccc1Cl)Nc1ccc2c(c1)OCCO2,-5.62,,
Cc1ccccc1-c1nnc(-c2cccs2)o1,-20.8,,
CN(CC(=O)Nc1ccc(N2CCOCC2)cc1)CC(=O)Nc1ccc([N+](=O)[O-])cc1Br,15.9,"0.651 µM [rising, partial curve]","0.731 µM [rising, full curve]"
CCN(CC)S(=O)(=O)c1ccc2[nH]c(=O)cc(C(=O)Nc3ccc(C)c(S(=O)(=O)N(CC)CC)c3)c2c1,-27.4,,"0.82 µM [falling, full curve, poor fit]"
COc1cc(NC(=O)CN(c2cc(C)cc(C)c2)S(=O)(=O)c2c(C)[nH]c(=O)[nH]c2=O)cc(OC)c1,-55.1,"29.1 µM [falling, single point]",
Cc1ccc(S(=O)(=O)/N=C2\C=C(Nc3cccc(C(=O)O)c3)C(=O)c3ccccc32)cc1,-0.901,,"29.1 µM [falling, single point]"
COc1cccc(C(C(=O)NC(C)(C)C)N(CCc2ccccc2)C(=O)CCC(=O)Nc2cc(C)on2)c1OC (stereo not given),12.1,,
Cc1ccc(-c2nn(-c3ccccc3)cc2CN(Cc2ccccc2)C(=O)c2ccco2)o1,,"1.84 µM [rising, partial curve]","0.651 µM [rising, full curve]"
CC(C)C1OC(c2cccc(NC(=O)c3cccs3)c2)OCC1(C)C (stereo not given),-21.4,"0.00461 µM [falling, full curve, poor fit]","16.4 µM [falling, partial curve, poor fit]"
Cc1c(NC(=O)C(C)OC(=O)/C=C/c2ccc3c(c2)OCO3)c(=O)n(-c2ccccc2)n1C (stereo not given),31.6,,
